Here are results for 3 molecules from paper PMC10468565.

The chains behind the UniProt entries cited, without tags or fusion partners.
UniProt P62137: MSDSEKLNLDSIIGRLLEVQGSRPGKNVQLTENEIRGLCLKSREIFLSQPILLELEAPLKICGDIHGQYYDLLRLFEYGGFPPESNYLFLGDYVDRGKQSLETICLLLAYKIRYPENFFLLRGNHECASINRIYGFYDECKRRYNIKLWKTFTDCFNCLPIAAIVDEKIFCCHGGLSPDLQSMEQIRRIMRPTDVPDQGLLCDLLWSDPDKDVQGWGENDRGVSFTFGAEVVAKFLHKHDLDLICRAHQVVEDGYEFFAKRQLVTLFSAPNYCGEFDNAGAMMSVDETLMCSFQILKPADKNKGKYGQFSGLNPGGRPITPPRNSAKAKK
UniProt P62136: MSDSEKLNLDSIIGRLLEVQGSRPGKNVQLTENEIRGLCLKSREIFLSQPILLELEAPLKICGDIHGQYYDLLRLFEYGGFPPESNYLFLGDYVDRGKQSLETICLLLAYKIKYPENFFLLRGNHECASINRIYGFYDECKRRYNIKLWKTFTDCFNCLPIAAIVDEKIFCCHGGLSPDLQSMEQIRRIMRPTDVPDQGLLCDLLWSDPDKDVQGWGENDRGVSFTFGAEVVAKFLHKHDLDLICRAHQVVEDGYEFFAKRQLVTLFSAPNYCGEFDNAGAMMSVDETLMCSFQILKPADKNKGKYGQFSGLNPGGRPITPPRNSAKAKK

The target in experiment [1] is T1, CARM1 in the HEK-293T cell line (UniProt Q86X55).
T1 sequence: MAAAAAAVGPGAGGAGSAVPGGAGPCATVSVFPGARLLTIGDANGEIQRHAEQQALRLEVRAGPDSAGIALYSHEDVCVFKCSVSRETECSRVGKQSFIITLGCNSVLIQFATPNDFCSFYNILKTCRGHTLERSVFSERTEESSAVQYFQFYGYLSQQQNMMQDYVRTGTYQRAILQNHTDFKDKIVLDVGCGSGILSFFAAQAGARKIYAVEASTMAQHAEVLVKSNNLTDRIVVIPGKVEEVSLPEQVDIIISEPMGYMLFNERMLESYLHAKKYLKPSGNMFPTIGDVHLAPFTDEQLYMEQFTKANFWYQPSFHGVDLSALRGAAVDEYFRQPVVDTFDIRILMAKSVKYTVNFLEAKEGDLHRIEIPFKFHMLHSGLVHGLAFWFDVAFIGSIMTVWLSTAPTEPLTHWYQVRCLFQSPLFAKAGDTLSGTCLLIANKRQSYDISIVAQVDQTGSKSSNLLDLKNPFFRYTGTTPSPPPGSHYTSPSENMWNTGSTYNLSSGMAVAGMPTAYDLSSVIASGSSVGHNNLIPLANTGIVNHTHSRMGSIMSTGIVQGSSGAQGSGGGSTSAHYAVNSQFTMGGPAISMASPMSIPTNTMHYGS
Kind of experiment: co-IP; HEK-293T cell line; whole-cell extract, protein A&G beads, Western blot. Background: In western blotting, separated proteins are transferred to a membrane and probed.

Experiment [2] deals with T2, Coactivator-associated arginine methyltransferase 1 (CARM1), endogenous in MC3T3-E1 and RAW264.7 cells (mouse (endogenous in MC3T3-E1 and RAW264.7)) (UniProt Q9WVG6).
T2 sequence: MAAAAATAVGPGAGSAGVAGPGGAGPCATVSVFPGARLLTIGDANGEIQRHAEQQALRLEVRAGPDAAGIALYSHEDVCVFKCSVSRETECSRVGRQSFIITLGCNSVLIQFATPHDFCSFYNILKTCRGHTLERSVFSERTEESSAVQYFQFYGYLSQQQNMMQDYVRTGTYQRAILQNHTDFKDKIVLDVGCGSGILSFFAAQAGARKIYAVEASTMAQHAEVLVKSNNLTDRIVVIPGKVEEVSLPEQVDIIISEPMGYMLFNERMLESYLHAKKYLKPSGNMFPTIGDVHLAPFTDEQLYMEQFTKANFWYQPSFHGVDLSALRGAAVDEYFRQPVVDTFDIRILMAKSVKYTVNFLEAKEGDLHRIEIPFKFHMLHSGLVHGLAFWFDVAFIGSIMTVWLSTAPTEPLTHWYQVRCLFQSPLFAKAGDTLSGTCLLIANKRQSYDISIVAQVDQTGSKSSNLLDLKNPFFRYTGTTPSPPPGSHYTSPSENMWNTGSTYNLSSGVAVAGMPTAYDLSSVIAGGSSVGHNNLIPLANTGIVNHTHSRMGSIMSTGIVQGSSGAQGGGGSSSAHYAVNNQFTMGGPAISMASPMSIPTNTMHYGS
Put plainly: co-IP; whole-cell extracts (Pierce IP lysis buffer) of MC3T3-E1 and RAW264.7 cells, antibody overnight at 4°C, protein A&G beads 4 h at 4°C, Western blot; IP of CARM1 and, in turn, IP of PPP1CA.

Experiment [3] deals with PPP1CA (PP-1alpha), endogenous in MC3T3-E1 and RAW264.7 cells (mouse (endogenous in MC3T3-E1 and RAW264.7)) (UniProt P62137). The description is as above.

Results are given in words; binding and its absence hold for the method and conditions named. In cells and extracts the contact can be indirect. Some binding calls cover weakened binding; strength is not graded here.

As to “PPP1CA in the HEK-293T cell line (from UniProt P62136 1-330)”, in experiment [1], the binding result is listed as “binds”.

As for “PPP1CA (PP-1alpha), endogenous in MC3T3-E1 and RAW264.7 cells (from UniProt P62137 1-330)”, in experiment [2], the binding result was “binds”.

B1: Coactivator-associated arginine methyltransferase 1 (CARM1), endogenous in MC3T3-E1 and RAW264.7 cells (protein, UniProt Q9WVG6-1 1-608)
chain: MAAAAATAVGPGAGSAGVAGPGGAGPCATVSVFPGARLLTIGDANGEIQRHAEQQALRLEVRAGPDAAGIALYSHEDVCVFKCSVSRETECSRVGRQSFIITLGCNSVLIQFATPHDFCSFYNILKTCRGHTLERSVFSERTEESSAVQYFQFYGYLSQQQNMMQDYVRTGTYQRAILQNHTDFKDKIVLDVGCGSGILSFFAAQAGARKIYAVEASTMAQHAEVLVKSNNLTDRIVVIPGKVEEVSLPEQVDIIISEPMGYMLFNERMLESYLHAKKYLKPSGNMFPTIGDVHLAPFTDEQLYMEQFTKANFWYQPSFHGVDLSALRGAAVDEYFRQPVVDTFDIRILMAKSVKYTVNFLEAKEGDLHRIEIPFKFHMLHSGLVHGLAFWFDVAFIGSIMTVWLSTAPTEPLTHWYQVRCLFQSPLFAKAGDTLSGTCLLIANKRQSYDISIVAQVDQTGSKSSNLLDLKNPFFRYTGTTPSPPPGSHYTSPSENMWNTGSTYNLSSGVAVAGMPTAYDLSSVIAGGSSVGHNNLIPLANTGIVNHTHSRMGSIMSTGIVQGSSGAQGGGGSSSAHYAVNNQFTMGGPAISMASPMSIPTNTMHYGS
As for B1, the binding entry in experiment [3] is reported as “binds”.
